This note sets out measurements from patent publication US10011874B2, “Androgen receptor mutation” (NOVARTIS AG, priority 2013, dated 2018).

The test system of the assay is LNCaP cells, controls (C1-C3). The experiment in a line: cells. To be noted: Homo sapiens, read-out: aggregate IC50, growth inhibition. The protocol:
Cells were re-seeded into 150 cm^2 dishes supplemented with the appropriate treatments once each week. Media and compound was replaced for dish 4 once every week. Once resistant clones emerged, media was aspirated from dish 4. […] Cells from control dishes 1-3 were maintained until resistant clones were cryopreserved to maintain a constant culture time for control and experimental lines.
1000 cells (spontaneous resistant or engineered lines) were seeded in media supplemented with 10% FCS. For spontaneous resistant clones, increasing concentrations of compounds were added on the day of seeding whereas for engineered lines, compounds were added after 2 d of doxycycline treatment. In all cases growth assays were performed using CellTiter-Glo Luminescent Cell Viability Assay Reagent (Promega, cat# G7573) 7 d following compound treatment.

pIC50: −log10 of the molar value.

For `CNC(=O)c1ccc(N2C(=S)N(c3ccc(C#N)c(C(F)(F)F)c3)C(=O)C2(C)C)cc1F` [MDV3100, 4-{3-[4-cyano-3-(trifluoromethyl)phenyl]-5,5-dimethyl-4-oxo-2-sulfanylideneimidazolidin-1-yl}-2-fluoro-N-methylbenzamide], the pIC50 was 6.70.

One may read the pIC50 as the negative decadic logarithm of the IC50, by convention in mol/L.
